The values that follow come from article PMC3744483, “Swiprosin-1 Is a Novel Actin Bundling Protein That Regulates Cell Spreading and Migration” (PLoS ONE, 2013).

In test [1] the target is M2_GFP_Swip-1 (Δ97–163) (human) (UniProt Q96C19). The experiment in a line: cross-linking; lysates of transfected HEK293T cells with glutaraldehyde (0.001–0.01%) on ice for 20 min, SDS-PAGE, blot with anti-GFP.
Test [2] addresses T1, wild-type swiprosin-1 fused to GFP (human) (UniProt Q96C19).
T1 sequence: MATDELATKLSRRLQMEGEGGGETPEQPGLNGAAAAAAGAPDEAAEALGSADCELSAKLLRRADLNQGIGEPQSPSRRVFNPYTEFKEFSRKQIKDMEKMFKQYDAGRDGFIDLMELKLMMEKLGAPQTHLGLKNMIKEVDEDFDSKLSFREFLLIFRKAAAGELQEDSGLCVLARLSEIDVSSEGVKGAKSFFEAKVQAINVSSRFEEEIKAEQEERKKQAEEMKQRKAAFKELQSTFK
Kind of test: co-IP; HEK293T transfected with GFP or GFP_Swip-1 and myc or myc_Swip-1 (4, 7, 11 µg); lysates precipitated with anti-GFP antibody-conjugated beads, blotted with anti-GFP or anti-myc; also after BAPTA-AM (20 µM, with 2 mM EGTA) or ionomycin (2 µM, with 1 mM CaCl2) in the presence of 10 µM cytochalasin D.

The target of test [3] is M3_GFP_Swip-1 (97–240) (human) (UniProt Q96C19). The experiment in a line: cross-linking; lysates of transfected HEK293T cells with glutaraldehyde (0.001–0.01%) on ice for 20 min, SDS-PAGE, blot with anti-GFP.
Test [4] has as its target M1_GFP_Swip-1 (1–163) (human) (UniProt Q96C19). The test is described as above.

No constants are given. Whether binding was seen depends on the method and setting. Binding seen in cells or lysates may run through a third protein. Some results given as binding are weak or reduced against the parent protein; the word gives no strength. Sequences can lack the tags named with a protein.

B1: M2_GFP_Swip-1 (Δ97–163) (protein, UniProt Q96C19)
chain: MATDELATKLSRRLQMEGEGGGETPEQPGLNGAAAAAAGAPDEAAEALGSADCELSAKLLRRADLNQGIGEPQSPSRRVFNPYTEFKEFSRKQIKDELQEDSGLCVLARLSEIDVSSEGVKGAKSFFEAKVQAINVSSRFEEEIKAEQEERKKQAEEMKQRKAAFKELQSTFK
For the molecule B1, the binding entry in test [1] is reported as “binds”.

B2: His-tagged wild-type swiprosin-1 (natural protein, human, UniProt Q96C19 1-240, looked up)
chain: MATDELATKLSRRLQMEGEGGGETPEQPGLNGAAAAAAGAPDEAAEALGSADCELSAKLLRRADLNQGIGEPQSPSRRVFNPYTEFKEFSRKQIKDMEKMFKQYDAGRDGFIDLMELKLMMEKLGAPQTHLGLKNMIKEVDEDFDSKLSFREFLLIFRKAAAGELQEDSGLCVLARLSEIDVSSEGVKGAKSFFEAKVQAINVSSRFEEEIKAEQEERKKQAEEMKQRKAAFKELQSTFK
notes: swiprosin-1, human, full-length clone amplified from pOTB7 (RZPD), cloned into a modified pET-28a; The modified pET-28a carries a TEV protease cleavage site (ENLYFQ/G) with the N-terminal tandem His tags; no cleavage is described and the protein is detected with anti-His; also called Swip-1; source: E. coli BL21 (DE3), purified (Ni-NTA agarose); not shown: His tag (tandem), N-terminal, kept
Regarding B2, the binding result in test [2] is on record as “binds”.

B3: M3_GFP_Swip-1 (97–240) (domain or fragment, UniProt Q96C19 97-240)
chain: MEKMFKQYDAGRDGFIDLMELKLMMEKLGAPQTHLGLKNMIKEVDEDFDSKLSFREFLLIFRKAAAGELQEDSGLCVLARLSEIDVSSEGVKGAKSFFEAKVQAINVSSRFEEEIKAEQEERKKQAEEMKQRKAAFKELQSTFK
In the case of B3, the binding result in test [3] is reported as “binds”.

B4: M1_GFP_Swip-1 (1–163) (domain or fragment, UniProt Q96C19 1-163)
chain: MATDELATKLSRRLQMEGEGGGETPEQPGLNGAAAAAAGAPDEAAEALGSADCELSAKLLRRADLNQGIGEPQSPSRRVFNPYTEFKEFSRKQIKDMEKMFKQYDAGRDGFIDLMELKLMMEKLGAPQTHLGLKNMIKEVDEDFDSKLSFREFLLIFRKAAAG
B4: in test [4], the binding entry was “no binding”.
